Experimental data: patent US5221664A, “Composition and treatment with biologically active peptides and toxic cations” (Magainin Pharmaaceuticals Inc., priority 1991, dated 1993)
Part of at least one peptide drawing is inferred or uncertain, most often the ends. Square brackets hold non-standard residues; d marks the D form. Ends that are not written are not given here. Peptide text beside a SMILES is read from it. Orn = NCCC[C@H](N)C(=O)O

Test system: P. aeruginosa strain 27853
Conditions: for MIC: agent alone; for MIC of the peptide: plus 5 μg/ml silver nitrate
Method: Approximately 1-5×10^5 colony forming units (CFUs) of P. aeruginosa strain 27853, dispersed in 100 μl of Trypticase soy broth (TSB), were added to each test well. […] B13-33 peptide is of the following structure:
The following peptide combinations were tested for Minimal Inhibitory Concentration (MIC) of the B13-33 peptide:
The following combinations were tested for the MIC of silver nitrate:
Approximately 1-5×10^5 CFUs of P. aeruginosa strain 27853 dispersed in 100 μl of TSB were added to each test well. […]

| Compound | MIC [µg/mL] | MIC of the peptide [µg/mL] |
| --- | --- | --- |
| CC[C@H](C)[C@H](NC(=O)[C@H](CCCCN)NC(=O)CNC(=O)[C@H](C)NC(=O)[C@@H](NC(=O)[C@H](CCCCN)NC(=O)[C@H](C)NC(=O)[C@@H](NC(=O)[C@H](CCCN)NC(=O)CNC(=O)[C@H](C)NC(=O)[C@@H](NC(=O)[C@H](CCCCN)NC(=O)[C@H](C)NC(=O)[C@@H](NC(=O)[C@H](CCCCN)NC(=O)CNC(=O)[C@H](C)NC(=O)[C@@H](NC(=O)[C@@H](N)CCCCN)[C@@H](C)CC)[C@@H](C)CC)[C@@H](C)CC)[C@@H](C)CC)[C@@H](C)CC)C(=O)N[C@@H](C)C(=O)O [Peptide 2, KIAGKIAKIAGOIAKIAGKIA] (H-KIAGKIAKIAG[Orn]IAKIAGKIA-OH) | 16 | < 0.03 |
| GIGKFLKKAKKFGKAFVKIMKK [B13-33 peptide] | 4 to 16 |  |
| KIAGKIAKIAGKIAKIAGKIA [Peptide 1, [KIAGKIA]3] | 16 to 32 | < 0.03 |
